Measurements published in patent US20170362301A1 (Janssen / Centocor, published 2017).
Where a chain is given by its changes, count along the chain named. Names and notes keep the numbering of the source. Results are given in words; binding and its absence hold for the method and conditions named. Some results given as binding are weak or reduced against the parent protein; the word gives no strength.

B1: P54AR4-83v2 A90C, NEM conjugate (designed binder)
chain: LPAPKNLVVSEVTEDSARLSWDDPWAFYESFLIQYQESEKVGEAIVLTVPGSERSYDLTGLKPGTEYTVSIYGVHNVYKDTNMRGLPLSCIFTT
modifications: NEM on Cys 90
notes: His-tagged
B2: P54AR4-83v2 D15C, NEM conjugate (designed binder)
chain: B1 chain with D15C, C90A
modifications: NEM on Cys 15
notes: His-tagged
B3: P54AR4-83v2 E11C, NEM conjugate (designed binder)
chain: B1 chain with E11C, C90A
modifications: NEM on Cys 11
notes: His-tagged
B4: P54AR4-83v2 E14C, NEM conjugate (designed binder)
chain: B1 chain with E14C, C90A
modifications: NEM on Cys 14
notes: His-tagged
B5: P54AR4-83v2 E53C, NEM conjugate (designed binder)
chain: B1 chain with E53C, C90A
modifications: NEM on Cys 53
notes: His-tagged
B6: P54AR4-83v2 G60C, NEM conjugate (designed binder)
chain: B1 chain with G60C, C90A
modifications: NEM on Cys 60
notes: His-tagged
B7: P54AR4-83v2 G64C, NEM conjugate (designed binder)
chain: B1 chain with G64C, C90A
modifications: NEM on Cys 64
notes: His-tagged
B8: P54AR4-83v2 I45C, NEM conjugate (designed binder)
chain: B1 chain with I45C, C90A
modifications: NEM on Cys 45
notes: His-tagged
B9: P54AR4-83v2 I91C, NEM conjugate (designed binder)
chain: B1 chain with C90A, I91C
modifications: NEM on Cys 91
notes: His-tagged; also called 191C
B10: P54AR4-83v2 K40C, NEM conjugate (designed binder)
chain: B1 chain with K40C, C90A
modifications: NEM on Cys 40
notes: His-tagged
B11: P54AR4-83v2 K62C, NEM conjugate (designed binder)
chain: B1 chain with K62C, C90A
modifications: NEM on Cys 62
notes: His-tagged
B12: P54AR4-83v2 L47C, NEM conjugate (designed binder)
chain: B1 chain with L47C, C90A
modifications: NEM on Cys 47
notes: His-tagged
B13: P54AR4-83v2 L88C, NEM conjugate (designed binder)
chain: B1 chain with L88C, C90A
modifications: NEM on Cys 88
notes: His-tagged
B14: P54AR4-83v2 N6C, NEM conjugate (designed binder)
chain: B1 chain with N6C, C90A
modifications: NEM on Cys 6
notes: His-tagged
B15: P54AR4-83v2 Q34C, NEM conjugate (designed binder)
chain: B1 chain with Q34C, C90A
modifications: NEM on Cys 34
notes: His-tagged
B16: P54AR4-83v2 R54C, NEM conjugate (designed binder)
chain: B1 chain with R54C, C90A
modifications: NEM on Cys 54
notes: His-tagged
B17: P54AR4-83v2 S10C, NEM conjugate (designed binder)
chain: B1 chain with S10C, C90A
modifications: NEM on Cys 10
notes: His-tagged
B18: P54AR4-83v2 S16C, NEM conjugate (designed binder)
chain: B1 chain with S16C, C90A
modifications: NEM on Cys 16
notes: His-tagged
B19: P54AR4-83v2 S20C, NEM conjugate (designed binder)
chain: B1 chain with S20C, C90A
modifications: NEM on Cys 20
notes: His-tagged
B20: P54AR4-83v2 S30C, NEM conjugate (designed binder)
chain: B1 chain with S30C, C90A
modifications: NEM on Cys 30
notes: His-tagged
B21: P54AR4-83v2 S38C, NEM conjugate (designed binder)
chain: B1 chain with S38C, C90A
modifications: NEM on Cys 38
notes: His-tagged
B22: P54AR4-83v2 S70C, NEM conjugate (designed binder)
chain: B1 chain with S70C, C90A
modifications: NEM on Cys 70
notes: His-tagged
B23: P54AR4-83v2 S89C, NEM conjugate (designed binder)
chain: B1 chain with S89C, C90A
modifications: NEM on Cys 89
notes: His-tagged
B24: P54AR4-83v2 T48C, NEM conjugate (designed binder)
chain: B1 chain with T48C, C90A
modifications: NEM on Cys 48
notes: His-tagged
B25: P54AR4-83v2 T59C, NEM conjugate (designed binder)
chain: B1 chain with T59C, C90A
modifications: NEM on Cys 59
notes: His-tagged
B26: P54AR4-83v2 T68C, NEM conjugate (designed binder)
chain: B1 chain with T68C, C90A
modifications: NEM on Cys 68
notes: His-tagged
B27: P54AR4-83v2 T93C, NEM conjugate (designed binder)
chain: B1 chain with C90A, T93C
modifications: NEM on Cys 93
notes: His-tagged
B28: P54AR4-83v2 V8C, NEM conjugate (designed binder)
chain: B1 chain with V8C, C90A
modifications: NEM on Cys 8
notes: His-tagged
B29: P54AR4-83v2 V41C, NEM conjugate (designed binder)
chain: B1 chain with V41C, C90A
modifications: NEM on Cys 41
notes: His-tagged
B30: P54AR4-83v2 A3C, NEM conjugate (designed binder)
chain: B1 chain with A3C, C90A
modifications: NEM on Cys 3
notes: His-tagged
B31: P54AR4-83v2 K5C, NEM conjugate (designed binder)
chain: B1 chain with K5C, C90A
modifications: NEM on Cys 5
notes: His-tagged
B32: P54AR4-83v2 L7C, NEM conjugate (designed binder)
chain: B1 chain with L7C, C90A
modifications: NEM on Cys 7
notes: His-tagged
B33: P54AR4-83v2 N82C, NEM conjugate (designed binder)
chain: B1 chain with N82C, C90A
modifications: NEM on Cys 82
notes: His-tagged
B34: P54AR4-83v2 T81C, NEM conjugate (designed binder)
chain: B1 chain with T81C, C90A
modifications: NEM on Cys 81
notes: His-tagged
B35: P54AR4-83v2 W25C, NEM conjugate (designed binder)
chain: B1 chain with W25C, C90A
modifications: NEM on Cys 25
notes: His-tagged
B36: P54AR4-83v2 Y78C, NEM conjugate (designed binder)
chain: B1 chain with Y78C, C90A
modifications: NEM on Cys 78
notes: His-tagged

target: T1, EGFR (form in the assay not stated) (human, UniProt P00533 25-645, limits assumed); test: summary of the cys scan

| Binder | binding |
| --- | --- |
| B1 | binds |
| B2 | binds |
| B3 | binds |
| B4 | binds |
| B5 | binds |
| B6 | binds |
| B7 | binds |
| B8 | binds |
| B9 | binds |
| B10 | binds |
| B11 | binds |
| B12 | binds |
| B13 | binds |
| B14 | binds |
| B15 | binds |
| B16 | binds |
| B17 | binds |
| B18 | binds |
| B19 | binds |
| B20 | binds |
| B21 | binds |
| B22 | binds |
| B23 | binds |
| B24 | binds |
| B25 | binds |
| B26 | binds |
| B27 | binds |
| B28 | binds |
| B29 | binds |

target: T1, EGFR (form in the assay not stated); test: ELISA, NEM conjugate

| Binder | binding |
| --- | --- |
| B30 | binds |
| B31 | binds |
| B32 | binds |
| B33 | binds |
| B34 | binds |
| B35 | binds |
| B36 | binds |
